Test results as given in the supplement of paper PMC7877785.
± gives the uncertainty stated by the source. Many entries were measured with a wide error.

Experiment: self-splicing fitness, log relative to wild type (ln ratio); higher = more splicing; Tetrahymena group I intron in knt gene, E. coli kanamycin selection, DiMSum; sequences stand for … in CUCUCU…GGAGGGAAAAGUUAUCAGGCAUGCACCUGGUAGCUAGUCUUUAAACCAAUAGAUUGCAUCGGUUUAAAAGGCAAGACCGUCAAAUUGCGGGAAAGGGGUCAACAGCCGUUCAGUACCAAGUCUCAGGGGAAACUUUGAGAUGGCCUUGCAAAGGGUAUGGUAAUAAGCUGACGGACAUGGUCCUAACCACGCAGCCAAGUCCUAAGUCAACAGAUCUUCUGUUGAUAUGGAUGCAGUUCACAGACUAAAUGUCGGUCGGGGAAGAUGUAUUCUUCUCAUAAGAUAUAGUCGGACCUCUCCUUAAUGGGAGCUAGCGGAUGAAGUGAUGCAACACUGGAGCCGCUGGGAACUAAUUUGUAUGCGAAAGUAUAUUGAUUAGUUUUGGAGUACUCGUGGUCG
Summary of the method: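 The eight P1ex-region nucleotides of an intron in the knt kanamycin-resistance gene on pET-22b(+) were all randomised and the library put into E. coli BL21(DE3). Six replicate transformations were grown overnight at 37°C or 30°C on LB agar with or without 25 μg/mL kanamycin, together with 100 μg/mL carbenicillin, 50 μM IPTG and 0.2% rhamnose. Colonies were pooled and amplicon-sequenced on an Illumina HiSeq 2500. Fitness from DiMSum is the error-weighted combination of wild-type-normalised replicate fold changes, kanamycin over none.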

Row | Sequence | self-splicing fitness (ln) (30 °C) | self-splicing fitness (ln) (37 °C)
1 | UUAUAGCAAUAUUACGGGAA | -1.59 ± 0.29 | -1.26 ± 0.28
2 | GGGAAGCAAUAUUACGUACC | -3.65 ± 0.53 | -1.77 ± 0.58
3 | UACCAGCAAUAUUACGUUGG | -3.21 ± 0.12 | -2.85 ± 0.14
4 | UCAUAGCAAUAUUACGCGCU |  | -3.43 ± 0.6
5 | AACGAGCAAUAUUACGAUAU | -3.13 ± 0.21 | -1.3 ± 0.17
6 | AAAGAGCAAUAUUACGUAUC | -3.39 ± 0.6 | 
7 | AGGAAGCAAUAUUACGUUCC | -2.96 ± 0.39 | -2.59 ± 0.48
8 | AACGAGCAAUAUUACGUGAC | -5.36 ± 0.5 | 
9 | UGUUAGCAAUAUUACGCUCC | 0.558 ± 1.1 | 0.216 ± 0.84
10 | CCAUAGCAAUAUUACGAAAU |  | -3.14 ± 0.74
11 | CGUGAGCAAUAUUACGAUAA | -4.37 ± 0.39 | -2.68 ± 0.23
12 | GCAUAGCAAUAUUACGCGCU | -3.87 ± 0.53 | 
13 | CAGGAGCAAUAUUACGCCAA |  | -2.26 ± 0.5
14 | CGUGAGCAAUAUUACGCCGU | -2.34 ± 0.52 | 
15 | GAAAAGCAAUAUUACGACCG | -0.942 ± 0.14 | -0.33 ± 0.17
16 | AGAGAGCAAUAUUACGGGAU | -2.33 ± 0.59 | 
17 | CUUUAGCAAUAUUACGUUUC | -5.38 ± 0.51 | 
18 | GAUUAGCAAUAUUACGGGUC | -4.65 ± 0.52 | 
19 | GGUCAGCAAUAUUACGCCAC | -1.55 ± 0.71 | -2.87 ± 0.75
20 | UAUGAGCAAUAUUACGAAUC | -4.85 ± 0.71 | 

Row | Sequence | self-splicing fitness (ln) (30 °C) | self-splicing fitness (ln) (37 °C)
21 | AUACAGCAAUAUUACGGGUA | -1.24 ± 0.078 | -0.645 ± 0.078
22 | UCCGAGCAAUAUUACGUCCC | -3.83 ± 1 | -1.71 ± 0.54
23 | CCAGAGCAAUAUUACGUCCC | -4.51 ± 0.72 | -2.22 ± 0.55
24 | AUAGAGCAAUAUUACGUAAC |  | -1.39 ± 0.72
25 | CUUUAGCAAUAUUACGGAGC | -2.71 ± 0.66 | -3.91 ± 1
26 | CGAUAGCAAUAUUACGAUGU | -0.22 ± 0.14 | -0.614 ± 0.16
27 | UGGAAGCAAUAUUACGCAAG | -5.31 ± 1 | 
28 | CUUCAGCAAUAUUACGAUCC |  | -3.3 ± 1
29 | CCGGAGCAAUAUUACGUUCU |  | -2.53 ± 0.54
30 | GGAGAGCAAUAUUACGAAUA |  | -2.81 ± 0.55
31 | GUUAAGCAAUAUUACGUCAC | -1.61 ± 0.51 | 
32 | CGUGAGCAAUAUUACGCUAC | -1.52 ± 1.2 | 
33 | AUUUAGCAAUAUUACGUGGC | -3.57 ± 0.43 | -1.69 ± 0.32
34 | UAUUAGCAAUAUUACGGUCC | -2.93 ± 1.1 | -1.79 ± 0.56
35 | AGGGAGCAAUAUUACGGGCC | -2.79 ± 1.2 | -0.233 ± 0.72
36 | GCGUAGCAAUAUUACGCCCG | -2.23 ± 0.58 | 
37 | UGUCAGCAAUAUUACGCGAU | -3.41 ± 0.4 | -2.2 ± 0.34
38 | CUGUAGCAAUAUUACGCAAC | -4.16 ± 0.73 | 
39 | CCUUAGCAAUAUUACGCAGC |  | -2.48 ± 0.62
40 | CAUCAGCAAUAUUACGGGAU | -4.36 ± 1 | 

Row | Sequence | self-splicing fitness (ln) (30 °C) | self-splicing fitness (ln) (37 °C)
41 | UCCAAGCAAUAUUACGCCAG | -3.06 ± 0.75 | 
42 | GGCAAGCAAUAUUACGCCAG | -2.44 ± 0.55 | 
43 | GGGGAGCAAUAUUACGAGGG |  | -3.08 ± 0.74
44 | UAUGAGCAAUAUUACGAGGC |  | -2.45 ± 0.55
45 | AACGAGCAAUAUUACGACAG | -3.9 ± 0.52 | 
46 | AAGGAGCAAUAUUACGCACU | -1.53 ± 0.17 | -0.454 ± 0.18
47 | UGCGAGCAAUAUUACGAUGC |  | 0.0981 ± 1.2
48 | CCAGAGCAAUAUUACGCUCC | -3.31 ± 1 | -1.33 ± 1.2
49 | CUUCAGCAAUAUUACGACAC | -3.5 ± 0.73 | 
50 | AGGGAGCAAUAUUACGUGUU | -2.63 ± 0.31 | -1.73 ± 0.29
51 | UUUAAGCAAUAUUACGGUAC |  | -2.5 ± 0.61
52 | UGGUAGCAAUAUUACGGAAU | -4.57 ± 0.73 | 
53 | GUCUAGCAAUAUUACGAUUG | -4.37 ± 0.51 | -2.14 ± 0.26
54 | GCCUAGCAAUAUUACGCCAU | -3.33 ± 0.53 | 
55 | GGACAGCAAUAUUACGUAUG | -1.13 ± 0.073 | -0.419 ± 0.08
56 | UUGGAGCAAUAUUACGUAGG | -3.11 ± 0.23 | -1.86 ± 0.15
57 | CUGGAGCAAUAUUACGACAC | -3.97 ± 1 | -2.3 ± 1.1
58 | GAUUAGCAAUAUUACGAUCC | -4.58 ± 0.72 | -2.6 ± 0.77

Taken from above.
Entry for GGUCAGCAAUAUUACGCCAC under self-splicing fitness (ln) (37 °C): -2.87 ± 0.75
Entry for CCUUAGCAAUAUUACGCAGC under self-splicing fitness (ln) (37 °C): -2.48 ± 0.62
Entry for UGUCAGCAAUAUUACGCGAU under self-splicing fitness (ln) (37 °C): -2.2 ± 0.34
Entry for CUGGAGCAAUAUUACGACAC under self-splicing fitness (ln) (30 °C): -3.97 ± 1
